Results from patent publication US6972296B2, “Carboxylic acid derivatives that inhibit the binding of integrins to their receptors” (Encysive Pharmaceuticals Inc., priority 1999, dated 2005).
Structures were worked out from names or drawings and are uncertain.

Protein sequences, listed by entry. Tags and fused reporters are not part of them. Residues count along the entry.
UniProt P05556, 21-798 limits assumed: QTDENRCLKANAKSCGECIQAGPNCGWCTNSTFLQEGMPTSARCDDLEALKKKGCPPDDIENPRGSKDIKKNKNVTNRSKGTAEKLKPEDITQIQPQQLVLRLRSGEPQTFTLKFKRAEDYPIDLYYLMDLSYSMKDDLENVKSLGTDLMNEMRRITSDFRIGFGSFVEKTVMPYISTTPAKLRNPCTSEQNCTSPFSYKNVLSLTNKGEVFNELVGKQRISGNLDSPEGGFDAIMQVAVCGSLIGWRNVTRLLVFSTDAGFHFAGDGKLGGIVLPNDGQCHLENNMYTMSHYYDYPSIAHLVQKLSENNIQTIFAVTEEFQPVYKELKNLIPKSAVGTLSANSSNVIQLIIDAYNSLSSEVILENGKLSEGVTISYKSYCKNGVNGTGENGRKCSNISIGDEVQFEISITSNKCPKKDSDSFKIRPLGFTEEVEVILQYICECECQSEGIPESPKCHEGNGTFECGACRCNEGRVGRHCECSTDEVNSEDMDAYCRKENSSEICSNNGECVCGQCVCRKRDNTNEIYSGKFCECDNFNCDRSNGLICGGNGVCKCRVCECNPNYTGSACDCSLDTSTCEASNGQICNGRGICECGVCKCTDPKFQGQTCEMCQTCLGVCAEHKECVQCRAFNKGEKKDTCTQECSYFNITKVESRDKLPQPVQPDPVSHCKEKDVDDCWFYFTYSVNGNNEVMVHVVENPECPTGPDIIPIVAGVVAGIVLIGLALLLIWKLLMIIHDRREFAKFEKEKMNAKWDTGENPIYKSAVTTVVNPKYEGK
UniProt P13612, 34-1032 limits assumed: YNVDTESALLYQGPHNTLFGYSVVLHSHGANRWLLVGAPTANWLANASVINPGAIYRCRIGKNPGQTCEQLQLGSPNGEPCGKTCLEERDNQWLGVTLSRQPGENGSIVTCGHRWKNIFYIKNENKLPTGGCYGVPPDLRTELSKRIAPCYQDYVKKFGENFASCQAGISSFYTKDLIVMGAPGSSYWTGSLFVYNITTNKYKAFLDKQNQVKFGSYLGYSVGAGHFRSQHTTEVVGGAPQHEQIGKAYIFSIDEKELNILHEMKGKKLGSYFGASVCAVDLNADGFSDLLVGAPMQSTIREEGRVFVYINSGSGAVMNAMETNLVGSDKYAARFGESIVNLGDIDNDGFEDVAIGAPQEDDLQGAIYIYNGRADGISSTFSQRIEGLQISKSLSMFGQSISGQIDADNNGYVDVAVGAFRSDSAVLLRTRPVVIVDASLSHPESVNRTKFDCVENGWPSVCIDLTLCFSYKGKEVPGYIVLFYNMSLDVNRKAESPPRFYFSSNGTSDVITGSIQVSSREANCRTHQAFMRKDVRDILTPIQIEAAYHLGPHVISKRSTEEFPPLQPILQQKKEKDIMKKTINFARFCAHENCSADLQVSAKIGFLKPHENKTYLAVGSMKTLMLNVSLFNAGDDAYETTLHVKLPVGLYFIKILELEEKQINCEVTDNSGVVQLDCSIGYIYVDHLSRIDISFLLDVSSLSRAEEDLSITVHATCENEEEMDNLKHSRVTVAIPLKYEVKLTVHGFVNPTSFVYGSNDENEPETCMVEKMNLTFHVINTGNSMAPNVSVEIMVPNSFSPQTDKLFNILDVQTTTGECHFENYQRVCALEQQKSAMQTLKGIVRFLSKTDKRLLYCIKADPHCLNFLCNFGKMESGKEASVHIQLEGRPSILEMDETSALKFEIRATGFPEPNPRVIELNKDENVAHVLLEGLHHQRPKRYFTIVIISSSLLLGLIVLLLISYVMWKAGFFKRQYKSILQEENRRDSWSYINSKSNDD

Molecular target: α4β1 integrin (Homo sapiens, UniProt P05556+P13612)
Experiment: Adhesion of calcein-labeled Ramos cells to CS1 (fibronectin) peptide conjugated ovalbumin
Conditions: Table 7; Ramos cell adhesion to CS1 conjugated ovalbumin; dose required to give 50% inhibition
Method: A procedure in which a 26-amino acid peptide containing the CS1 sequence of fibronectin with an N-terminal Cys ([…]) was coupled to maleimide activated ovalbumin was used to determine the efficacy of the compounds synthesized. Bovine serum albumin (BSA) and CS1 conjugated ovalbumin were coated onto 96-well polystyrene plates at 0.5 μg/ml in TBS (50 mM TRIS, pH 7.5; 150 mM NaCl) at 4° C. for 16 hours. The plates were washed three times with TBS and blocked with TBS containing 3% BSA at room temperature for 4 hours. Blocked plates were washed three times in binding buffer (TBS; 1 mM MgCl2; 1 mM CaCl2; 1 mM MnCl2) prior to assay. Ramos cells fluorescently labeled with calcein AM were resuspended in binding buffer (10^7 cells/ml) and diluted 1:2 with same buffer with or without compound. 100 μM of compound was added. The cells were added immediately to the wells (2.5×10^5 cells/well) and incubated for 30 minutes at 37° C. Following three washes with binding buffer, adherent cells were lysed and quantitated using a fluorometer. IC50 is defined as the dose required to give 50% inhibition, measured in μM for Tables 2 and 4. The lower the IC50 value and the greater the percentage of inhibition, the more efficient the compound is at prevention of cell adhesion.

- IC50: 11 nM
Structure (SMILES): Cc1cccc(Cl)c1Cn1c2c(c(O)c(NC(=O)N[C@@H](CC(=O)O)c3cc(F)cc(F)c3)c1=O)CCC2
